PubChem BioAssay AID602196, INSERM, 2012
Shown is an unselected part of about 23,000 reagents tested. 455 of them (2%) count as active. 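Active includes both protection and sensitisation; some change values fall well beyond the stated -50 to +50 range.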 The record does not give: the amount of reagent.

Aim: 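Knock-downs that protect lung cancer cells from cisplatin or sensitise them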
Cell system: human A549 lung cancer cells
Knock-down reagent: siRNA pair against human genes
Duration: 48 h transfection before cisplatin; time from cisplatin to read-out not stated
Treatment: cisplatin at a dose killing half of control-siRNA cells; exact dose and duration not given
Measurement: 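Cisplatin cell death as a shift from the 50% death seen with control siRNA; siRNAs toxic or growth-blocking alone scored 0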
Scale: two-siRNA summed score (-2 to +2): higher = both siRNAs protect from cisplatin killing; -2 means both sensitise; mean protection from cisplatin (shift in death) and protection from cisplatin (shift in death), siRNA C and protection from cisplatin (shift in death), siRNA D: higher = protection from cisplatin killing
Call rule: 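Each siRNA scores 0 if harmful alone by LDH or WST-1, otherwise +1 if it reduces and -1 if it increases cisplatin killing; a gene is active when both siRNAs agree (sum +2 or -2)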
Calls: active = both siRNAs shift cisplatin killing the same way; inactive = no consistent shift, or siRNA harmful alone

The first 5 entries, ahead of the listing:
gene,two-siRNA summed score (-2 to +2),mean protection from cisplatin (shift in death) (%),"protection from cisplatin (shift in death), siRNA C (%)","protection from cisplatin (shift in death), siRNA D (%)",Outcome
LOC440552,0,8.1,11.1,5.1,inactive
RBM24,1,9.8,27.1,-7.6,inactive
LOC401454,0,4.9,1.6,8.1,inactive
LOC390944,1,6.3,-0.1,12.8,inactive
DNAJC18,2,21.8,31.1,12.6,active

Main list, from the first entry:
gene,two-siRNA summed score (-2 to +2),mean protection from cisplatin (shift in death) (%),"protection from cisplatin (shift in death), siRNA C (%)","protection from cisplatin (shift in death), siRNA D (%)",Outcome
LOC440552,0,8.1,11.1,5.1,inactive
RBM24,1,9.8,27.1,-7.6,inactive
LOC401454,0,4.9,1.6,8.1,inactive
LOC390944,1,6.3,-0.1,12.8,inactive
DNAJC18,2,21.8,31.1,12.6,active
LOC400964,0,11.1,15.6,6.6,inactive
NEIL2,-1,-8.5,7.7,-24.6,inactive
AMTN,0,7.9,8.4,7.4,inactive
LOC388170,0,2.2,6,-1.7,inactive
FTL,0,5.6,34.1,-22.9,inactive
APOBR,-1,-6,-20.6,8.7,inactive
LOC401270,0,6.6,8.4,4.8,inactive
LOC440187,0,3.4,7.3,-0.4,inactive
SCFD1,0,2,-0.1,4.2,inactive
KRTAP12-2,0,17.2,-1.6,35.9,inactive
REEP6,1,6.6,12,1.2,inactive
CASR,0,6.4,22.7,-10,inactive
ENPP5,0,1.3,-2.2,4.8,inactive
CYSTM1,-1,-10.1,-7.5,-12.6,inactive
GPR15LG,0,4,2.4,5.5,inactive
SERPINH1,0,6.4,8.2,4.7,inactive
TSPAN7,0,-2.2,-5,0.6,inactive
UGT1A6,1,10.2,19.4,1,inactive
ZBTB43,0,-2.3,-2.1,-2.5,inactive
TAOK1,1,10.9,30,-8.2,inactive
YKT6,1,15.8,21.7,9.9,inactive
KLHDC2,0,5.1,-0.6,10.8,inactive
SLC16A9,2,21.6,14.1,29.1,active
LOC92129,0,15.1,16.3,13.9,inactive
OR2M7,0,10.6,17.3,4,inactive
STRBP,0,-6.5,-2.8,-10.3,inactive
GLB1L2,1,15.1,11.8,18.3,inactive
SPATA12,0,11.1,11.3,11,inactive
ETAA1,0,14,21.2,6.7,inactive
LINC02481,0,5.1,5.2,4.9,inactive
DEXI,0,7.5,9.5,5.6,inactive
NIBAN1,0,12.8,12.1,13.4,inactive
LOC389178,0,14,20.9,7.2,inactive
BCL6,0,-3.7,2.9,-10.3,inactive
ERI2,0,-8.3,-6.7,-9.9,inactive
P2RY13,0,1.1,4.3,-2.1,inactive
MEAF6,0,4.4,-8.3,17,inactive
SC5D,0,0.6,17,-15.7,inactive
IGHMBP2,0,7.5,8.4,6.5,inactive
MGC22265,0,5.9,6.6,5.2,inactive
ZNF674-AS1,0,11.4,15.2,7.6,inactive
TRIM41,-1,-8.3,4.7,-21.2,inactive
CNDP1,0,-0.8,-1.4,-0.2,inactive
DNASE1L3,0,-3.9,-4.5,-3.4,inactive
DST,1,8,-3.1,19,inactive
SEMA3A,1,15.1,14.9,15.4,inactive
LOC440998,0,3.7,3.3,4,inactive
FTO,0,-1.2,3.9,-6.3,inactive
TMEM8B,0,-1.5,-1.7,-1.4,inactive
LOC286348,0,7.3,2.6,12,inactive
ITGB1BP1,0,7.9,2.5,13.3,inactive
MYO3B,0,19.4,2.4,36.4,inactive
